Source: publication PMC7819943, “Rice protein-binding microarrays: a tool to detect cis-acting elements near promoter regions in rice”
Some of the results follow.

Protein sequences, listed by entry. Tags and fused reporters are not part of them.
UniProt Q0JBA9, entry or part of it: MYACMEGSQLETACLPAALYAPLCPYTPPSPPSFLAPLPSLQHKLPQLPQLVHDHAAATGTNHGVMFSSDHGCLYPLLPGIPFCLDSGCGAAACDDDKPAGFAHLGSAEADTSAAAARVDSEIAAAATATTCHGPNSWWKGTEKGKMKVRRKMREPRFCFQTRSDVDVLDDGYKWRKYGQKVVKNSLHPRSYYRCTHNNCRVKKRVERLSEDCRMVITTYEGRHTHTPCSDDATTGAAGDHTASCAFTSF

molecular target: OsWRKY34 (Oryza sativa, UniProt Q0JBA9 1-250); assay: protein-binding microarray (RPBM); PBS, 2% BSA, 51.3 ng/ul salmon testes DNA, 50 uM zinc acetate, 200 nM TF, 25 C, 1 h; high values mean tight binding; conditions: protein: recombinant; tags: N-terminal polyhistidine and DsRed monomer fusion (pET32a); label: CyDye5-dUTP incorporated in the synthesized complementary strand; 3' TTTTT single-stranded linker to array surface; dsDNA, one strand shown
In short: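 Transcription factors were each fused at the N-terminus to a polyhistidine tag plus DsRed and expressed in E. coli BL21-CodonPlus before Ni–NTA purification. Binding to a double-stranded custom Agilent array was carried out with 200 nM protein at 25 °C for 1 h in PBS, 2% BSA, salmon testes DNA and 50 µM zinc acetate. The binding signal is per-feature fluorescence intensity, in arbitrary units, on an Axon 4000B scanner.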

| Sequence | binding signal |
| --- | --- |
| TGCATCTGTACGTTTCACTGAATTCCCCGTTGCTATACCGCGGAGTCACCTAGTGCAG | 11200 fluorescence intensity (a.u.) |
| GTTTTCTGCCCTTAACATCTTGCGTACATATAAATTTCATCGGAGTCACCTAGTGCAG | 11700 fluorescence intensity (a.u.) |
| GCGTTGACCTGTCAGTCTCCCAGGGCCCCACCATCCACACCGGAGTCACCTAGTGCAG | 10100 fluorescence intensity (a.u.) |
| ACTGTTCGTCTTATTTAAAATTTTTTAAATATTATTTATACGGAGTCACCTAGTGCAG | 12300 fluorescence intensity (a.u.) |
| GCTCAAGTAAGATGAAAATTGTTCTGTCTTAACCTGCTTTCGGAGTCACCTAGTGCAG | 9700 fluorescence intensity (a.u.) |
| CACTCCTCATTTCCTCCTCTTCTCTCGGCATCTTCATCTCCGGAGTCACCTAGTGCAG | 8260 fluorescence intensity (a.u.) |
| AATCTCCATCTTCTTGCTCGTACAACGTAAATACTCGTCTCGGAGTCACCTAGTGCAG | 8830 fluorescence intensity (a.u.) |
| CCACAAAAACCACCGCCTCGTCTCGTCGCCTCGCCTCCGCCGGAGTCACCTAGTGCAG | 9620 fluorescence intensity (a.u.) |
| GCTCTGAACTGTTGCCCATTGGTCTTATTTCCTCTGTATTCGGAGTCACCTAGTGCAG | 12500 fluorescence intensity (a.u.) |
| ACATGTTTTATAGATAGCACCTTACTTTACCATTGCGGGTCGGAGTCACCTAGTGCAG | 9160 fluorescence intensity (a.u.) |
| ATCTTGTAGAGCTCTTCGCACGGTACCAACTTTTAATTTCCGGAGTCACCTAGTGCAG | 9190 fluorescence intensity (a.u.) |
| TTTTTCTTTTTTCTAATTTTCTTCGTTTTATATCTCACAACGGAGTCACCTAGTGCAG | 8100 fluorescence intensity (a.u.) |
| ATTCTCCATCCGAACCGCGCCACCACCCGCCGCCCTCATGCGGAGTCACCTAGTGCAG | 8810 fluorescence intensity (a.u.) |
| GGAGAGGCCCACTGTTTCTTCCACTTCTCGCCTTGCTCGCCGGAGTCACCTAGTGCAG | 9160 fluorescence intensity (a.u.) |
| TTACTCCCGCCTCACTATCTGTCTTGGCGCGTCGTGTACACGGAGTCACCTAGTGCAG | 10500 fluorescence intensity (a.u.) |
| TGGTGCCAACTTATTCTCCAGCTGCTTTTTTTTACCTATGCGGAGTCACCTAGTGCAG | 8130 fluorescence intensity (a.u.) |
| CGTGTCCCGCATCACGTGTCCTCCGCCCGTCCACTGCTTTCGGAGTCACCTAGTGCAG | 10900 fluorescence intensity (a.u.) |
| CCGGCAATCCTCCCACGTCGTCTTCCTCTCGAATTTCGCACGGAGTCACCTAGTGCAG | 8030 fluorescence intensity (a.u.) |
| TTCATATGACTCTTGCTAATAGTAATAGCCTCTTGAACTACGGAGTCACCTAGTGCAG | 8320 fluorescence intensity (a.u.) |
| TCGTTCAATTTACATCCCTTAGTTCAACATCTTAGTTCTACGGAGTCACCTAGTGCAG | 10200 fluorescence intensity (a.u.) |
| ACTCGATTTGTACATTTTTATTGGTTGCATGGCCACAATTCGGAGTCACCTAGTGCAG | 9870 fluorescence intensity (a.u.) |
| GGCCTCAGATTTGTCAGCTCCTTGCTTCATCTCCTCCTAACGGAGTCACCTAGTGCAG | 9890 fluorescence intensity (a.u.) |
| CGCGATGTGGCCTTGTCCGTCTCCACTCCTGCTCGTCTCCCGGAGTCACCTAGTGCAG | 11600 fluorescence intensity (a.u.) |
| AGATTGTTTACTCACACGATGTTTTGTTGTTCTTTGTCATCGGAGTCACCTAGTGCAG | 8430 fluorescence intensity (a.u.) |
| CCATTTCTTTCTACTTCCCTTGCTGTTCTTGCCACCCTCTCGGAGTCACCTAGTGCAG | 12500 fluorescence intensity (a.u.) |
| GATTTACCATCGCTGTCCGGTTAGCCTCCGTTAACACTGTCGGAGTCACCTAGTGCAG | 11100 fluorescence intensity (a.u.) |
| TTTAGGCATGCATCAAGTTGGATTCTATGTGTTTTTTTCTCGGAGTCACCTAGTGCAG | 8990 fluorescence intensity (a.u.) |

| Sequence | binding signal |
| --- | --- |
| TTCCTCGCGCTCCCACGCCACGCAGCAGCCGCAGATCTCCCGGAGTCACCTAGTGCAG | 8370 fluorescence intensity (a.u.) |
| AATCTCCATCGTTTCTTCCTTACTCAGGTTTCTATTCCCTCGGAGTCACCTAGTGCAG | 13500 fluorescence intensity (a.u.) |
| ACGCTCTTCCTCGCGCGCGGCGCCGTCATCCGCGCCACCCCGGAGTCACCTAGTGCAG | 8500 fluorescence intensity (a.u.) |
| AAACTTCGTACACCACGCATTGCCGCCACCGCCGCGCTCGCGGAGTCACCTAGTGCAG | 8450 fluorescence intensity (a.u.) |
| CTGTTAATTAATCGTCTAATCATAAGTTCAGTGCTCGTATCGGAGTCACCTAGTGCAG | 9810 fluorescence intensity (a.u.) |
| CCATCACTCTCTCTCTCTCGCCTGCTCGCGGTTGCCTGTGCGGAGTCACCTAGTGCAG | 8520 fluorescence intensity (a.u.) |
| AACTTTTCCATCACATCAAAACTTTTCTACACACATAAACCGGAGTCACCTAGTGCAG | 8910 fluorescence intensity (a.u.) |
| GGAAGTAGAAGCGATAGGGTATAGTTGACCAATTTCGGCTCGGAGTCACCTAGTGCAG | 8980 fluorescence intensity (a.u.) |
| TATCTTTTTCTTTTTGGAGGTTTCGTTTTCTCTTGGTCAACGGAGTCACCTAGTGCAG | 10400 fluorescence intensity (a.u.) |
| GCCCATTCACTTCCTCGCTTTTTTACCACATAAAAAATCTCGGAGTCACCTAGTGCAG | 9780 fluorescence intensity (a.u.) |
| ACACTCCTGCTGTCACTCGTTGCATCTCACCTAGAGACCACGGAGTCACCTAGTGCAG | 8300 fluorescence intensity (a.u.) |
| GGTGGAGAGGAATAGCGCCGTATACCTGTGTCTCGTCGTGCGGAGTCACCTAGTGCAG | 9660 fluorescence intensity (a.u.) |
| ATCTGAATTGTATTCCACGGTGCTATTAGGCCTCACGAAACGGAGTCACCTAGTGCAG | 8060 fluorescence intensity (a.u.) |
| TTCACACATATTTATAAGCGCCTGCGTTTCACTGTGTTTTCGGAGTCACCTAGTGCAG | 9340 fluorescence intensity (a.u.) |
| AGTCCATTGGAGAATCGATCGGTTTGTTGCACACTTATTTCGGAGTCACCTAGTGCAG | 9710 fluorescence intensity (a.u.) |
| TTCTCTCTTGGTCTTATCCTCCTCCTTGTTGTTGCGGGAACGGAGTCACCTAGTGCAG | 8410 fluorescence intensity (a.u.) |
| TGATTTCATCCCACCATCGATACTTTGTGCTTAGTTTTCTCGGAGTCACCTAGTGCAG | 12800 fluorescence intensity (a.u.) |
| TCCTCACAAATCTCGTGCGCGCCACCGTCATCTCCGGCGACGGAGTCACCTAGTGCAG | 10300 fluorescence intensity (a.u.) |
| CGATCCTCTTTCGTGTTGCCTGCCGCCTGCCGCCTGCCGCCGGAGTCACCTAGTGCAG | 8950 fluorescence intensity (a.u.) |
| CTCATCACCCACAGCCGCACGCCGCCGTCCACCGGTCGCCCGGAGTCACCTAGTGCAG | 8192 fluorescence intensity (a.u.) |
| TGTTGACTTTTTAGTACATATTTAACCATTTGTCTTATTACGGAGTCACCTAGTGCAG | 14900 fluorescence intensity (a.u.) |
| AGGCCTTCTGTCCCGTTTGTTGAACTCATTGTCGACATTTCGGAGTCACCTAGTGCAG | 8200 fluorescence intensity (a.u.) |
| CGCGCTGATTTGACTTCCGGTTTGAAATACCACCACACCACGGAGTCACCTAGTGCAG | 8280 fluorescence intensity (a.u.) |
| CTAAACATATAGCAAACCAGATATGCTAACTTTTGCTCAGCGGAGTCACCTAGTGCAG | 8240 fluorescence intensity (a.u.) |
| GCCTTTATCTTTCGTATGTTGCTTTTAAAACCATTCACCACGGAGTCACCTAGTGCAG | 11800 fluorescence intensity (a.u.) |
| CCTGGAACTGATATCCTGAACTTGTTATTTCTTTTAACTTCGGAGTCACCTAGTGCAG | 9180 fluorescence intensity (a.u.) |
| CCCGTCCCGCTGGTCTCCATCAATTCCTCCTTAACCCAACCGGAGTCACCTAGTGCAG | 8230 fluorescence intensity (a.u.) |

Copied from the entries so far (three entries):

| Sequence | binding signal |
| --- | --- |
| AACTTTTCCATCACATCAAAACTTTTCTACACACATAAACCGGAGTCACCTAGTGCAG | 8910 fluorescence intensity (a.u.) |
| GGAAGTAGAAGCGATAGGGTATAGTTGACCAATTTCGGCTCGGAGTCACCTAGTGCAG | 8980 fluorescence intensity (a.u.) |
| TATCTTTTTCTTTTTGGAGGTTTCGTTTTCTCTTGGTCAACGGAGTCACCTAGTGCAG | 10400 fluorescence intensity (a.u.) |
